Patent publication US20190203210A1
No constants are given. Whether binding was seen depends on the method and setting. For part of these data: Binding seen in cells or lysates may run through a third protein. Some results given as binding are weak or reduced against the parent protein; the word gives no strength. Where a sequence is shown, tags or fusion partners need not be part of it.

Chains of the proteins cited; added tags and fusions are not shown.
UniProt Q7Z6Z7: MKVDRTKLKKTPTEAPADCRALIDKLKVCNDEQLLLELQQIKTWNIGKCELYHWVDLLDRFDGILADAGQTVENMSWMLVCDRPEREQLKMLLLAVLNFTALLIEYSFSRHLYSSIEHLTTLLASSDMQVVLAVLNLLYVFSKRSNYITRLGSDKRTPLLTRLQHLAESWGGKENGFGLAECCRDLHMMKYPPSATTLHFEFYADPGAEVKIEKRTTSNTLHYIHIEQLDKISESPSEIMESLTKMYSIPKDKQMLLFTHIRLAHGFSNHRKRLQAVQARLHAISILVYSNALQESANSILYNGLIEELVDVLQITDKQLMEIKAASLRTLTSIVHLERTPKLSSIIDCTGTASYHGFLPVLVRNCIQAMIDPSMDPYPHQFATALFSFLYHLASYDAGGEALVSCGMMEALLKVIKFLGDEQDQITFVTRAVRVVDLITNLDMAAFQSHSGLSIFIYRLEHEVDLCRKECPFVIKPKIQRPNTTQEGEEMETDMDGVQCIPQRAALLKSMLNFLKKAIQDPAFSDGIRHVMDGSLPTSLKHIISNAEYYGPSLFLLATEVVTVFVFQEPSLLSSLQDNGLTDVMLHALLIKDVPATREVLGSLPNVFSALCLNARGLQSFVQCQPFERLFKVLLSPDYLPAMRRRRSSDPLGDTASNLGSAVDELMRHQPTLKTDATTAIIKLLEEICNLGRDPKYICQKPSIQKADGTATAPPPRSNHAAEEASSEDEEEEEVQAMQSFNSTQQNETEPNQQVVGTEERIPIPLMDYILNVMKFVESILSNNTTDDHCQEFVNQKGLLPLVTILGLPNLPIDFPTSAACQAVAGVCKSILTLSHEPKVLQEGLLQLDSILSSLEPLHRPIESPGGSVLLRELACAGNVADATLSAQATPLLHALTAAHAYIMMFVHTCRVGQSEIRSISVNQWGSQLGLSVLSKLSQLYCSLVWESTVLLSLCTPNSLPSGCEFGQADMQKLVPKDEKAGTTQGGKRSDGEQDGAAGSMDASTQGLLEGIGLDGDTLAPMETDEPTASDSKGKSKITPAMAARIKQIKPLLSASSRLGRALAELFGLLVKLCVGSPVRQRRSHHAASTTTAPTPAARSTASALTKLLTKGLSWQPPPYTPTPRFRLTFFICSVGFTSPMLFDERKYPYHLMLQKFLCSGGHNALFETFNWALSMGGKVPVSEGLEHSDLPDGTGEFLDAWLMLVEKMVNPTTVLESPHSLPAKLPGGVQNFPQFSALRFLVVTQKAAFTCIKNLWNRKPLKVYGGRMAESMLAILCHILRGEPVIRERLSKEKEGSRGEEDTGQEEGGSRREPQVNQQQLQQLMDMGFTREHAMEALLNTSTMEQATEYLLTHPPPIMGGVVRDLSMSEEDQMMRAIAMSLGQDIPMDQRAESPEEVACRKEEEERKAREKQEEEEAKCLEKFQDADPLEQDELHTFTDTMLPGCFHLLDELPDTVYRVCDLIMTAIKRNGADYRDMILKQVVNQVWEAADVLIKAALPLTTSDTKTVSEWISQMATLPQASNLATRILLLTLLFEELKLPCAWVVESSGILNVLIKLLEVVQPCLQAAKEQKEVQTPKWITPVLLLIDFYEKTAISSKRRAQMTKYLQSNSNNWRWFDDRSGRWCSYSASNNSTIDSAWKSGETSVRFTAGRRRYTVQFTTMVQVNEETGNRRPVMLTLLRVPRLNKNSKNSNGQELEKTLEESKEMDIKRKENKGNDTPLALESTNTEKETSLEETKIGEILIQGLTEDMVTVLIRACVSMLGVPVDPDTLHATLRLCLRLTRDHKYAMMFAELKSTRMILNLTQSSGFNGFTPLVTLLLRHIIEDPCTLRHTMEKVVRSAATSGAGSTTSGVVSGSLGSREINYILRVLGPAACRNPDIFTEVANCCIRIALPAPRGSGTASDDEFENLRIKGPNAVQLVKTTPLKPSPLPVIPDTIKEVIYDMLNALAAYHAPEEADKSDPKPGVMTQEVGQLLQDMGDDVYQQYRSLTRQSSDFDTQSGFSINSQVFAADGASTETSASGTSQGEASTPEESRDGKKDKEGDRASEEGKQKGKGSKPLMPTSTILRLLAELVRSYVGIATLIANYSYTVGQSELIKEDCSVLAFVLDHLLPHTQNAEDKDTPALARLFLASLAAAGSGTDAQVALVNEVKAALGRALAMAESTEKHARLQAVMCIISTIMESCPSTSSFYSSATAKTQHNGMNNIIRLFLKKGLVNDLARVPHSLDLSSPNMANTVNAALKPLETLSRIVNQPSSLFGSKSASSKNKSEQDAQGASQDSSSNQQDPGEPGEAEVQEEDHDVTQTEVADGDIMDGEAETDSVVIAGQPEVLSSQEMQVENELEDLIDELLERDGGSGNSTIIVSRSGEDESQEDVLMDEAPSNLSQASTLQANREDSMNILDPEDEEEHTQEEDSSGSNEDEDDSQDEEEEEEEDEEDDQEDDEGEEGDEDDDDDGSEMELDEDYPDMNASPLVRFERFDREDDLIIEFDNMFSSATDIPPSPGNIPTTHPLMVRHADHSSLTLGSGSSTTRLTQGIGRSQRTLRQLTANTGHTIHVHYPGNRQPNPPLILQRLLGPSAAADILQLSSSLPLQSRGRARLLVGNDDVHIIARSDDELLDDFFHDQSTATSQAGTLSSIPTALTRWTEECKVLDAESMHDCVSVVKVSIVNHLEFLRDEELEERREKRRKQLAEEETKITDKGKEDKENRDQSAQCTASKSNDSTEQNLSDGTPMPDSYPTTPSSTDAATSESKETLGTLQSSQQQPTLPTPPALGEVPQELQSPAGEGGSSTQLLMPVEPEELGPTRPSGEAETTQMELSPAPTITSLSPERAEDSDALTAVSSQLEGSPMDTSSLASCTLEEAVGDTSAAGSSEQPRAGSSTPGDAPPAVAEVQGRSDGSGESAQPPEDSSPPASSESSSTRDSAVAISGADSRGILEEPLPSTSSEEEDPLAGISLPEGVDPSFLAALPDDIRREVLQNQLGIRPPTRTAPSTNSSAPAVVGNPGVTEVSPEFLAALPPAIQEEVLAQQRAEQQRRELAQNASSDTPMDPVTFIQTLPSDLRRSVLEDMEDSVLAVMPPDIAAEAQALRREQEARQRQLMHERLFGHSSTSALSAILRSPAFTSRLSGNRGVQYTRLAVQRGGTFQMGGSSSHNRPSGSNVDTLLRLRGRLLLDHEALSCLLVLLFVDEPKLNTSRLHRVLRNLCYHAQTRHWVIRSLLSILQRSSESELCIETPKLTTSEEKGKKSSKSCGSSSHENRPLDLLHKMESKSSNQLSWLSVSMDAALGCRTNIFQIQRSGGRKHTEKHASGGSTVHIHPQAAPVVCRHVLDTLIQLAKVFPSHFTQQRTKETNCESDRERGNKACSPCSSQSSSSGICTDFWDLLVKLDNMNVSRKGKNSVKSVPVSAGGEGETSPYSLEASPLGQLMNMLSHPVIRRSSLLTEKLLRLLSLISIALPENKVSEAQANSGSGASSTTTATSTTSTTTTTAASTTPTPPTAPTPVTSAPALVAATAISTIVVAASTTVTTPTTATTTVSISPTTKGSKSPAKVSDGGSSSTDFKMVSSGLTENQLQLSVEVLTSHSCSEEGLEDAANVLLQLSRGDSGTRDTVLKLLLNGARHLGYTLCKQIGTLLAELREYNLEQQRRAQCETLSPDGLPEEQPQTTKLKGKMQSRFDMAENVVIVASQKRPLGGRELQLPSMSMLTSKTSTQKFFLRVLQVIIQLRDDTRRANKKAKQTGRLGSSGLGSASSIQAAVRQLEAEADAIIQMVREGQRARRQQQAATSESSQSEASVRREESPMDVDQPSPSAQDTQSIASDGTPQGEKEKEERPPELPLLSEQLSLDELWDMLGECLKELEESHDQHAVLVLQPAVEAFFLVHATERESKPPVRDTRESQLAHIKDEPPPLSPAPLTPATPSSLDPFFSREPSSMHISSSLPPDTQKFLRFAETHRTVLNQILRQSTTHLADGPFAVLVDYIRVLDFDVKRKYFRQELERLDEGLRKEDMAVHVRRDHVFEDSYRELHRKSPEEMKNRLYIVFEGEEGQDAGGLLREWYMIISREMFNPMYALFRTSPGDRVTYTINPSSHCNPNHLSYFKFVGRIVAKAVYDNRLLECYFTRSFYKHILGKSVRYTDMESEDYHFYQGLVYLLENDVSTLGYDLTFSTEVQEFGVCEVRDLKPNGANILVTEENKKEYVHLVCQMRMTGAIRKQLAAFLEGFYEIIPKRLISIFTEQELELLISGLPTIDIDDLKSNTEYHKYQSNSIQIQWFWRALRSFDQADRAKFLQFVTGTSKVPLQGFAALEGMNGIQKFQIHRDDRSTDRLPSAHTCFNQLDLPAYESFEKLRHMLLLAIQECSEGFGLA

What was measured:
[1] = molecular target: T1, FLAG-HA-Atoh1 (UniProt Q92858); assay: anti-HA IP of FLAG-HA-Atoh1 293T lysate, LC-MS/MS
T1 sequence (looked up): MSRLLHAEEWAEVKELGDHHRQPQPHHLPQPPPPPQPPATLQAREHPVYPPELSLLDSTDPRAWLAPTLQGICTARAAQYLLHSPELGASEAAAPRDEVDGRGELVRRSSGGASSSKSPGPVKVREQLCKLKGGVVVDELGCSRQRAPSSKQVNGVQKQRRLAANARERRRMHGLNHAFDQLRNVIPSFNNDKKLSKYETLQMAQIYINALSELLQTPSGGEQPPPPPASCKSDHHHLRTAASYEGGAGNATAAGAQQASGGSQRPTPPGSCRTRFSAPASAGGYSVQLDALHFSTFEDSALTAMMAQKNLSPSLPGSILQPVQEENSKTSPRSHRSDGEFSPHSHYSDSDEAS

[2] = molecular target: T1, FLAG-HA-Atoh1; assay: reciprocal co-immunoprecipitation and Western blot, FLAG-HA-Atoh1 293T lysates
[3] = molecular target: T1, FLAG-HA-Atoh1; assay: MS of Coomassie band from FLAG-HA-Atoh1 IP

Measured: binding

HECT, UBA and WWE domain containing 1 (Huwe1) protein (from UniProt Q7Z6Z7 1-4374) (enzyme)
binds: all assays above
